Experimental data reported in patent publication EP0182152B1, “Antitumor antibiotics (LL-E33288 Complex)” (AMERICAN CYANAMID COMPANY, priority 1984, dated 1986).
At least one compound was matched to its structure with a doubt left.

Key:
Assay in all cases: in vitro antibacterial activity, agar dilution MIC
Format in all cases: cell-based
[1] = system: Enterococcus sp.; conditions: Enterococcus sp. CMC 83-53
[2] = system: Streptococcus faecalis; conditions: Streptococcus faecalis ATCC 29212
[3] = system: Pseudomonas aeruginosa
[4] = system: Bacillus subtilis; conditions: Bacillus subtilis ATCC
[5] = system: Staphylococcus epidermidis
[6] = system: Micrococcus luteus; conditions: Micrococcus luteus PCI 1001
[7] = system: Staphylococcus aureus

CCN[C@H]1CO[C@@H](O[C@H]2[C@H](O[C@H]3C#CC=CC#C[C@@]4(O)CC(=O)C(NC(=O)OC)=C3/C4=C\CSSSC)O[C@H](C)[C@@H](NO[C@H]3C[C@H](O)[C@H](SC(=O)c4c(C)c(I)c(O[C@@H]5O[C@@H](C)[C@H](O)[C@@H](OC)[C@H]5O)c(OC)c4OC)[C@@H](C)O3)[C@@H]2O)C[C@@H]1OC (stereo in doubt) [LL-E33288γ1-I]
Minimal Inhibitory Concentration [1]: 0.0078 µg/mL | Minimal Inhibitory Concentration [2]: 0.00012 µg/mL | Minimal Inhibitory Concentration ([3]; Pseudomonas aeruginosa 12-4-4 (MP)): 0.25 µg/mL | Minimal Inhibitory Concentration ([3]; Pseudomonas aeruginosa ATCC 27853): 0.12 µg/mL | Minimal Inhibitory Concentration [4]: ≤0.000031 µg/mL | Minimal Inhibitory Concentration ([5]; Staphylococcus epidermidis ATCC 12228): ≤0.000031 µg/mL | Minimal Inhibitory Concentration ([5]; Staphylococcus epidermidis CMC-83-133): ≤0.000031 µg/mL | Minimal Inhibitory Concentration [6]: ≤0.000031 µg/mL | Minimal Inhibitory Concentration ([7]; Staphylococcus aureus ATCC 25923): ≤0.000031 µg/mL | Minimal Inhibitory Concentration ([7]; Staphylococcus aureus SSC 82-20): ≤0.000031 µg/mL | Minimal Inhibitory Concentration ([7]; Staphylococcus aureus SSC 82-24): ≤0.000031 µg/mL | Minimal Inhibitory Concentration ([7]; Staphylococcus aureus SSC 82-26): ≤0.000031 µg/mL | Minimal Inhibitory Concentration ([7]; Staphylococcus aureus SSC 82-31): ≤0.000031 µg/mL | Minimal Inhibitory Concentration ([7]; Staphylococcus aureus SSC 82-57): ≤0.000031 µg/mL | Minimal Inhibitory Concentration ([7]; Staphylococcus aureus Smith): ≤0.000031 µg/mL
